Data: article PMC4871572

Experiments:
Assay in all cases: two-hybrid; yeast two-hybrid assays; bait and prey orientation and constructs not told
[1] = biological target: RUND-1 (C. elegans)
[2] = biological target: RAB-2 (C. elegans)
[3] = biological target: CCCP-1 (C. elegans)

Measured: binding

B1: EIPR-1 (protein, UniProt Q9U1Q0 1-362)
chain: MSECLMFGMDCEARCMTSMTADEENICFLVGTNNIKNDKNQVNKLFMDPEASRLMSKTFRHPAGEVRAIAAHPTKSTILATCTADFSSLGGTHSITIWNIEEDKRTLETVSRLPTEQVMSCLEWEPNSMKCAAMTPFRPEIQLLNMENGPEIVQNLKIPLENEEDEMFSATWSPHHDGNMLGVTGGRTAWCIDCRTDNEYLKIRDAHIHRTISMDFNPNLQHVIATCGDDGYVRIWDTRSTSSALTSLHPHAHWVWSVRFHPVHDQLLLTGGSDASVVLSCAQSVSSEQQIEFRDDEEEEEDDDLVEKLQDGQLERIDEHEDSVYACAWSSADPWTFASLSYDGRMIVSNVSRKHKYALMQL
no binding: all assays above

Results are given in words; binding and its absence hold for the method and conditions named.
